Assay results taken from patent publication US7504433B2, “Thiophene derivative PPAR modulators” (Eli Lilly and Company, priority 2003, dated 2009).
At least one compound was matched to its structure with a doubt left.

Experiment: LDL-cholesterol, total-cholesterol and triglyceride lowering in hypercholesterolemic hamsters
Assay type: in vivo
Details: male Syrian hamsters on high-fat cholesterol-rich diet, 200 mg/kg once daily by gavage for 14 days, compared to vehicle

## CC(C)OC(=O)C(C)(C)Oc1ccc(C(=O)c2ccc(Cl)cc2)cc1 [fenofibrate]
  reduction in total cholesterol and triglyceride levels: did not show significant efficacy
